{"source": "paper doi:10.1101/644955", "binders": {"B1": {"name": "FLAG-tagged bovine IL-2 (ligand, UniProt P05016 21-155)", "chain": "APTSSSTGNTMKEVKSLLLDLQLLLEKVKNPENLKLSRMHTFDFYVPKVNATELKHLKCLLEELKLLEEVLNLAPSKNLNPREIKDSMDNIKRIVLELQGSETRFTCEYDDATVNAVEFLNKWITFCQSIYSTMT"}}, "biological_target": "T1, bovine IL-2Rα (bovine) (UniProt P12342)", "T1 sequence": "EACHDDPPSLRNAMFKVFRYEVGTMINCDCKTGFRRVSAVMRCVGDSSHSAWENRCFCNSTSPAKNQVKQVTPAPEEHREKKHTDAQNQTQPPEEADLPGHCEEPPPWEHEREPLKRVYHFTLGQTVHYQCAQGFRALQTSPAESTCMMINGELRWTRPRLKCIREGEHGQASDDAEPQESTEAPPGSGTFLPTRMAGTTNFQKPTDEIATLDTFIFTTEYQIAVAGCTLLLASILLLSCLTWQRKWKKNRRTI", "experiment": "flow cytometry on cells", "note": "No constants are given. Whether binding was seen depends on the method and setting. Some entries that bind do so weakly or less than the wild type. Where a sequence is shown, tags or fusion partners need not be part of it.", "data": [{"binder": "B1", "values": [{"measurement": "binding", "value": "binds"}]}]}
